# The campaign covered roughly 360,000 compounds. About 7,500 (2.1%) were called active. Inconclusive results, whose numbers are uncertain, are shown with a selection of clear calls. Calls come from the whole dose curve; as a rule, active = well fitted inhibition curve with a large enough effect; inconclusive = small, poorly fitted or top-dose-only effect, or effect the other way; inactive = flat fitted curve, though single readings scatter. A potency beside an inconclusive call is a rough fit, not a confirmed value.
# Experiment: Nrf2 qHTS screen for inhibitors; note: nearly all actives have a fitted effect of over 60% in size
# Conditions: A549 ARE-Fluc reporter, luciferase luminescence, 18-24 h; activity change, negative = inhibition: at 46 µM (top of the series)
# Summary of the method: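 Quantitative HTS in A549 cells stably bearing an antioxidant response element-firefly luciferase construct. Inhibition of Nrf2-driven transcription was scored by luminescence after 18-24 h of compound exposure at 37 °C.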
# % is set by controls: 0 for no effect and ±100 for the full control effect; potency is the fitted concentration of half-maximal effect.
Structure (SMILES),Potency,"activity change, negative = inhibition"
CC(=O)N1CCOc2ccc(S(=O)(=O)N3CCC(C(=O)Nc4ccc(C)cc4)CC3)cc21,"inconclusive: 29.1 µM [falling, single point]",–
CCCc1cc(C(=O)NC2CCCC2)no1,"inconclusive: 13 µM [activator, partial curve]",–
Cc1onc(-c2c(F)cccc2Cl)c1C(=O)N1C=CC(C(F)(F)F)=NCC1,"inconclusive: 23.1 µM [activator, single point]",–
CCC(C)(C)NC(=O)C(c1ccccc1)N(Cc1cccs1)C(=O)Cn1nnc2ccccc21 (stereo not given),–,inactive: -16%
COc1ccc(-c2c(C)cc3oc(=O)cc(-c4ccccc4)c3c2C)cc1C=O,"inconclusive: 23.1 µM [falling, single point]",–
COc1ccc(C(O)C(CN2CCOCC2)c2ccccc2)cc1F (stereo not given),–,inactive: 14.2%
CCOC(=O)c1[nH]c(C)c(C(=O)OCC(=O)N2CCCCC2C)c1C (stereo not given),"inconclusive: 25.9 µM [activator, partial curve, poor fit]",–
CCOC(=O)c1c(C)oc2c1c1c(c3ccccc32)OCN(CCCC(=O)O)C1,"inconclusive: 13 µM [falling, partial curve, poor fit]",–
CC[C@H](C)[C@H](NC(N)=O)C(=O)Nc1ccc(OC)c(Cl)c1,–,inactive: -11.5%
CCOC(=O)C1=C(c2ccccc2)N=c2s/c(=C\c3cccc(O)c3)c(=O)n2C1c1cccs1 (stereo not given),active: 25.9 µM,–
COc1cccc(/C=N/NC(=O)c2[nH]c(C)c(C(=O)N/N=C/c3cccc(OC)c3O)c2C)c1O,"inconclusive: 23.1 µM [falling, single point]",–
COc1ccc(CCNC(=O)c2ccc3c(c2)NC(=O)C(C(C)C)N3)cc1OC (stereo not given),"inconclusive: 29.1 µM [falling, single point]",–
O=C(CSc1nc(-c2ccccc2)[nH]c1-c1ccccc1)Nc1ccc2c(c1)OCCO2,"inconclusive: 20.6 µM [falling, single point]",–
COc1ccc(NS(=O)(=O)c2csc(C(=O)Nc3ccccc3)c2)cc1,"inconclusive: 13 µM [falling, partial curve, poor fit]",–
CCC(C(=O)OCC(=O)N1C(C)CCCC1C)c1ccccc1 (stereo not given),"inconclusive: 3.66 µM [activator, full curve, poor fit]",–
CN(C)c1ccc(/C=C2\N=C(C(C)(C)C)OC2=O)cc1,"inconclusive: 29.1 µM [falling, single point]",–
O=C(COc1ccc(S(=O)(=O)NC2CCCCC2)cc1)Nc1ccc2c(c1)OCCO2,"inconclusive: 20.6 µM [falling, single point]",–
O=C(Nc1cccc2cccnc12)c1ccc(F)cc1,"inconclusive: 0.411 µM [activator, full curve, poor fit]",–
COc1ccc2cc(C(=O)N/N=C/c3cc(OC)c(OC)c(OC)c3)[nH]c2c1,"inconclusive: 29.1 µM [falling, single point]",–
CCOC(=O)c1ccc(N2C(=O)c3[nH]nc(-c4ccc(OCC)cc4)c3C2c2ccc(OC)cc2OC)cc1 (stereo not given),–,inactive: -8.12%
COc1ccc(-c2nnc3n2N=C(c2c(OC)cccc2OC)CS3)cc1,–,inactive: 8.55%
CCOC(=O)N1CCN(C(=O)c2nn(C)c3c2CSc2ccccc2-3)CC1,"inconclusive: 4.61 µM [falling, full curve]",–

# Reprinted from the entries so far (20 entries):
Structure (SMILES),Potency,"activity change, negative = inhibition"
Cc1onc(-c2c(F)cccc2Cl)c1C(=O)N1C=CC(C(F)(F)F)=NCC1,"inconclusive: 23.1 µM [activator, single point]",–
CCC(C)(C)NC(=O)C(c1ccccc1)N(Cc1cccs1)C(=O)Cn1nnc2ccccc21 (stereo not given),–,inactive: -16%
COc1ccc(-c2c(C)cc3oc(=O)cc(-c4ccccc4)c3c2C)cc1C=O,"inconclusive: 23.1 µM [falling, single point]",–
COc1ccc(C(O)C(CN2CCOCC2)c2ccccc2)cc1F (stereo not given),–,inactive: 14.2%
CCOC(=O)c1[nH]c(C)c(C(=O)OCC(=O)N2CCCCC2C)c1C (stereo not given),"inconclusive: 25.9 µM [activator, partial curve, poor fit]",–
CCOC(=O)c1c(C)oc2c1c1c(c3ccccc32)OCN(CCCC(=O)O)C1,"inconclusive: 13 µM [falling, partial curve, poor fit]",–
CC[C@H](C)[C@H](NC(N)=O)C(=O)Nc1ccc(OC)c(Cl)c1,–,inactive: -11.5%
CCOC(=O)C1=C(c2ccccc2)N=c2s/c(=C\c3cccc(O)c3)c(=O)n2C1c1cccs1 (stereo not given),active: 25.9 µM,–
COc1cccc(/C=N/NC(=O)c2[nH]c(C)c(C(=O)N/N=C/c3cccc(OC)c3O)c2C)c1O,"inconclusive: 23.1 µM [falling, single point]",–
COc1ccc(CCNC(=O)c2ccc3c(c2)NC(=O)C(C(C)C)N3)cc1OC (stereo not given),"inconclusive: 29.1 µM [falling, single point]",–
O=C(CSc1nc(-c2ccccc2)[nH]c1-c1ccccc1)Nc1ccc2c(c1)OCCO2,"inconclusive: 20.6 µM [falling, single point]",–
COc1ccc(NS(=O)(=O)c2csc(C(=O)Nc3ccccc3)c2)cc1,"inconclusive: 13 µM [falling, partial curve, poor fit]",–
CCC(C(=O)OCC(=O)N1C(C)CCCC1C)c1ccccc1 (stereo not given),"inconclusive: 3.66 µM [activator, full curve, poor fit]",–
CN(C)c1ccc(/C=C2\N=C(C(C)(C)C)OC2=O)cc1,"inconclusive: 29.1 µM [falling, single point]",–
O=C(COc1ccc(S(=O)(=O)NC2CCCCC2)cc1)Nc1ccc2c(c1)OCCO2,"inconclusive: 20.6 µM [falling, single point]",–
O=C(Nc1cccc2cccnc12)c1ccc(F)cc1,"inconclusive: 0.411 µM [activator, full curve, poor fit]",–
COc1ccc2cc(C(=O)N/N=C/c3cc(OC)c(OC)c(OC)c3)[nH]c2c1,"inconclusive: 29.1 µM [falling, single point]",–
CCOC(=O)c1ccc(N2C(=O)c3[nH]nc(-c4ccc(OCC)cc4)c3C2c2ccc(OC)cc2OC)cc1 (stereo not given),–,inactive: -8.12%
COc1ccc(-c2nnc3n2N=C(c2c(OC)cccc2OC)CS3)cc1,–,inactive: 8.55%
CCOC(=O)N1CCN(C(=O)c2nn(C)c3c2CSc2ccccc2-3)CC1,"inconclusive: 4.61 µM [falling, full curve]",–

# Next entries follow.

Structure (SMILES),Potency,"activity change, negative = inhibition"
CCc1ccc(CNC(=O)CCCN2C(=O)c3cccnc3Oc3ccc(Cl)cc32)cc1,–,inactive: -9.14%
Cc1noc(C)c1C(=O)OCC(=O)Nc1cccc(S(=O)(=O)N(C)C)c1,"inconclusive: 18.4 µM [falling, single point]",–
O=C(Oc1cccc2c(O)cccc12)c1ccccc1Cl,"inconclusive: 18.4 µM [falling, partial curve, poor fit]",–
O=C(N/N=C/c1ccc[nH]1)c1c[nH]c2ccccc12,"inconclusive: 13 µM [falling, partial curve, poor fit]",–
CC(C)Sc1nc(SCC(=O)O)c2c3c(sc2n1)COC(C)(C)C3,"inconclusive: 23.1 µM [activator, partial curve, poor fit]",–
CC(=O)Nc1c(Cl)cc2c(c1Cl)C(=O)c1ccccc1-2,–,inactive: -5.51%
O=C(COC(=O)CCCN=C1NS(=O)(=O)c2ccccc21)NC(=O)NC1CCCC1,"inconclusive: 3.66 µM [falling, partial curve, poor fit]",–
CCN(CC(=O)NC(=O)NCc1ccccc1)Cc1nc2ccccc2c(=O)[nH]1,"inconclusive: 1.16 µM [activator, full curve, poor fit]",–
CSc1ccccc1C(=O)Nc1ccc(C)c(C)c1,"inconclusive: 13 µM [activator, partial curve]",–
COc1ccc(-c2cc(OC)c3ccccc3n2)cc1,–,inactive: 20.1%
O=[N+]([O-])c1cccc(S(=O)(=O)Nc2ccc(Cc3ccncc3)cc2)c1,active: 16.4 µM,–
CCC(C)N1C(=O)S/C(=C/c2ccc(N3CCOCC3)cc2C)C1=O (stereo not given),–,inactive: 13.3%
Cc1sc2nc(SCC(=O)Nc3ccc(Cl)c(C(=O)O)c3)[nH]c(=O)c2c1C,"inconclusive: 0.82 µM [activator, full curve]",–
Cc1ccc(NC(=S)N2CCN(Cc3ccc4c(c3)OCO4)CC2)c(C)c1,"inconclusive: 35.5 µM [falling, single point]",–
CC(CCCC(C)(C)O)NC(=O)c1cc(COc2ccc3ncccc3c2)on1 (stereo not given),active: 5.17 µM,–
CC(=O)N1c2ccc(S(=O)(=O)NCC3CCC(C(=O)N4CCCC(C)C4)CC3)cc2CC1C (stereo not given),"inconclusive: 23.1 µM [falling, single point]",–
CCOC(=O)C1=C(C)N(C[C@@H]2CC[C@@H](Cc3ccc(-c4ccccc4)cc3)O2)C(=O)NC1C1CC1 (stereo not given in full),"inconclusive: 25.9 µM [falling, single point]",–
O=C(Nc1ccc(OC(F)(F)F)cc1)C1CCCN(S(=O)(=O)c2cccc3nonc23)C1 (stereo not given),–,inactive: 3.76%
CC(=O)N1c2ccc(S(=O)(=O)NCC3CCC(C(=O)Nc4ccccc4C)CC3)cc2CC1C (stereo not given),"inconclusive: 29.1 µM [falling, single point]",–
C[C@@H]1CC=C[C@H]2[C@H]1C(=O)N(Cc1ccccc1)[C@H]2c1ccc2ccccc2c1/C=C/c1ccccc1,"inconclusive: 18.4 µM [falling, single point]",–
Cc1ccc(C(=O)c2coc3cc([N+](=O)[O-])c(O)c([N+](=O)[O-])c23)cc1,"inconclusive: 18.4 µM [falling, single point]",–
COCCNC(=O)c1c(N)n(-c2ccccc2)c2nc3ccccc3nc12,"inconclusive: 2.59 µM [falling, partial curve, poor fit]",–

Structure (SMILES),Potency,"activity change, negative = inhibition"
CN(CCOc1ccccc1)CC(=O)Nc1ccc(Cl)c(S(=O)(=O)N(C)C)c1,"inconclusive: 7.31 µM [falling, partial curve]",–
Cc1cccc(NC(=O)COC(=O)c2cc(C)oc2C)c1,"inconclusive: 10.3 µM [falling, partial curve]",–
COC(=O)c1oc(-c2ccc(Cl)cc2)nc1C,"inconclusive: 16.4 µM [activator, partial curve]",–
COc1ccc(CNc2nc(S(=O)(=O)c3ccccc3)c(Cl)s2)cc1OC,active: 14.6 µM,–
O=C1c2cccc3c(N4CCCCC4)ccc(c23)C(=O)N1c1cccc(O)c1,"inconclusive: 2.91 µM [activator, single point]",–
COc1ccc(CNC(=O)c2cc(S(=O)(=O)N3CCCCC3)ccc2N2CCOCC2)cc1OC,–,inactive: -4.26%
COc1ccc(OC)c(S(=O)(=O)Nc2ccc(-c3ccc4nnc(C)n4n3)cc2)c1,"inconclusive: 25.9 µM [falling, single point]",–
O=[N+]([O-])c1ccc(N=NNc2ccccc2)cc1,–,inactive: -1.21%
O=C(N/N=C\c1cc([N+](=O)[O-])ccc1N1CCOCC1)c1ccccn1,"inconclusive: 23.1 µM [falling, single point]",–
CCC(=O)Nc1nonc1-c1nc2ccccc2n1Cc1ccc(Cl)c(Cl)c1,"inconclusive: 3.26 µM [activator, partial curve, poor fit]",–
COc1ccccc1-c1c(C)nn2c(-c3ccccc3)cc(C)nc12,"inconclusive: 16.4 µM [falling, partial curve, poor fit]",–
Cc1occc1-c1nnc(SCC(=O)NCC2CCCO2)n1C (stereo not given),"inconclusive: 6.51 µM [falling, single point]",–
Cc1cccc(OCC(=O)Nc2nonc2-c2ccc(Br)cc2)c1C,–,inactive: 1.27%
O=C(CSc1nnnn1-c1ccccc1)Nc1ccccc1,–,inactive: -12.5%
C=CCn1c(SCC(=O)N2CCOCC2)nc2scc(-c3ccco3)c2c1=O,"inconclusive: 23.1 µM [falling, partial curve, poor fit]",–
CN(C)c1ccc(-c2ccc3c(=O)c4ccccc4n(C)c3c2)cn1,"inconclusive: 0.366 µM [activator, full curve, poor fit]",–
CSc1nc(-c2ccco2)cc(-c2ccccc2)c1C#N,–,inactive: -3.55%
O=C1C=C(c2cc(Cl)cc(Cl)c2)C[C@@H](c2ccc3c(c2)OCO3)C1,"inconclusive: 20.6 µM [falling, partial curve, poor fit]",–
O=C(Nc1ncc(Cc2ccc(Cl)cc2Cl)s1)c1ccc([N+](=O)[O-])cc1,"inconclusive: 6.51 µM [falling, partial curve, poor fit]",–
O=C(COc1ccc(Cl)cc1)Nc1sc2c(c1C(=O)Nc1cccc(Cl)c1)CCCC2,"inconclusive: 4.11 µM [falling, partial curve]",–
Cc1cccc(CSC2=NCCN2C(=O)c2ccco2)c1,"inconclusive: 8.2 µM [falling, partial curve, poor fit]",–
